Test results from patent US12042530B2, “Target peptides for immunotherapy and diagnostics” (University of Virginia Patent Foundation, priority 2012, dated 2024).

tested on: HLA-DR; experiment: HLA-DR-associated phosphopeptides on melanoma cells and EBV-transformed B cells; set-up: species or system human; key: Melanoma and transformed B cells are specified by M and B, respectively.; Melanoma and transformed B cells are specified by M and B, respectively.; M/B: Melanoma (M) and/or Transformed B-Cells (B); details: Class II MHC (DRB1*0404, 0101 or DRB4*0103)

Substance | M/B (cells on which the Class II MHC phosphopeptide is presented)
542 (NRAMRRVSSVPSR; SITE (1)..(13): One or more of the listed amino acids can be phosphorylated as set forth in the Tables; listed as Homo sapiens) [compound 542] | M/B
551 (VLKSRKSSVTEE; SITE (1)..(12): One or more of the listed amino acids can be phosphorylated as set forth in the Tables; listed as Homo sapiens) [compound 551] | M/B
472 (APSTYAHLSPAK; SITE (1)..(12): One or more of the listed amino acids can be phosphorylated as set forth in the Tables; listed as Homo sapiens) [compound 472] | M/B
466 (EPASPAASISRLSGEQVDGKG; SITE (1)..(21): One or more of the listed amino acids can be phosphorylated as set forth in the Tables; listed as Homo sapiens) [compound 466] | M/B
479 (SGGDDDWTHLSSKEVDPST; SITE (1)..(19): One or more of the listed amino acids can be phosphorylated as set forth in the Tables; listed as Homo sapiens) [compound 479] | M/B
